These are yes or no findings as the source states them, for the method shown. Some results given as binding are weak or reduced against the parent protein; the word gives no strength. For part of these data: Sequences can lack the tags named with a protein. Each block holds one binder with its values, some of them ahead of it.
Columns and labels:
[1] = biological target: T1, human MCAM domain 3 (amino acids 244-321) hFc (human) (UniProt P43121); test: ForteBio BLI, MCAMhFc domains on anti-human IgG Fc biosensors, antibody at 5 ug/ml
T1 sequence: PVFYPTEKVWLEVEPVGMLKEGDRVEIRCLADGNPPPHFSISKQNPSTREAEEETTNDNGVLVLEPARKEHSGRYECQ

[2] = biological target: T2, human MCAM, full length, expressed on transfected cells (human) (UniProt P43121); test: summary sentence of the example's results; no method named in the sentence
T2 sequence: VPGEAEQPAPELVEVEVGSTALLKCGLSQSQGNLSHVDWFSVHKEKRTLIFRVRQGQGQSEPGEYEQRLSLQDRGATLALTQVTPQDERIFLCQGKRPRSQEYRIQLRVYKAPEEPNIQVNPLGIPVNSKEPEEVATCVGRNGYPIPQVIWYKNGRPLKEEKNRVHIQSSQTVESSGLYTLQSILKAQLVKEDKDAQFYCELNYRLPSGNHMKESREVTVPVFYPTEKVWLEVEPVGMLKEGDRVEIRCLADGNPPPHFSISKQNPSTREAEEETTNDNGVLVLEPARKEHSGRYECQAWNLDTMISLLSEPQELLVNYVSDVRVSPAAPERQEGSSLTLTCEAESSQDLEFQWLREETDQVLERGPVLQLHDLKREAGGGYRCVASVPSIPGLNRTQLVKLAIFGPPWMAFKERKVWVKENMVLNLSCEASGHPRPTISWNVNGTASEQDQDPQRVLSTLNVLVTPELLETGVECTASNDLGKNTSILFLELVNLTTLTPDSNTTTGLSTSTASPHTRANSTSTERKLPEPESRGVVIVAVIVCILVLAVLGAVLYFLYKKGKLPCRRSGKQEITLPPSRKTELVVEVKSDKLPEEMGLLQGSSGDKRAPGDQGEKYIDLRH

[3] = biological target: T3, combination of human MCAM domains 1 and 2 (amino acids 19-242) hFc (human) (UniProt P43121); test: ForteBio BLI, MCAMhFc domains on anti-human IgG Fc biosensors, antibody at 5 ug/ml
T3 sequence: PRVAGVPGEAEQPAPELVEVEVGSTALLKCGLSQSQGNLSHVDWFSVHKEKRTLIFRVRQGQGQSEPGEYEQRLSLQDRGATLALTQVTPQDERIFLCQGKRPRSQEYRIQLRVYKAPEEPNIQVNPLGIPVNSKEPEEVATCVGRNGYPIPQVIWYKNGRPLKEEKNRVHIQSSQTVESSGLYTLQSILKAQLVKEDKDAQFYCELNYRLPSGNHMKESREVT

[4] = biological target: T2, human MCAM, full length, expressed on transfected cells (human); test: binding affinity experiments, data not shown
[5] = biological target: T4, human MCAM (antigen of the BLI kinetics in Example 7) (human) (UniProt P43121); test: BLI, ForteBio Octet QK
T4 sequence: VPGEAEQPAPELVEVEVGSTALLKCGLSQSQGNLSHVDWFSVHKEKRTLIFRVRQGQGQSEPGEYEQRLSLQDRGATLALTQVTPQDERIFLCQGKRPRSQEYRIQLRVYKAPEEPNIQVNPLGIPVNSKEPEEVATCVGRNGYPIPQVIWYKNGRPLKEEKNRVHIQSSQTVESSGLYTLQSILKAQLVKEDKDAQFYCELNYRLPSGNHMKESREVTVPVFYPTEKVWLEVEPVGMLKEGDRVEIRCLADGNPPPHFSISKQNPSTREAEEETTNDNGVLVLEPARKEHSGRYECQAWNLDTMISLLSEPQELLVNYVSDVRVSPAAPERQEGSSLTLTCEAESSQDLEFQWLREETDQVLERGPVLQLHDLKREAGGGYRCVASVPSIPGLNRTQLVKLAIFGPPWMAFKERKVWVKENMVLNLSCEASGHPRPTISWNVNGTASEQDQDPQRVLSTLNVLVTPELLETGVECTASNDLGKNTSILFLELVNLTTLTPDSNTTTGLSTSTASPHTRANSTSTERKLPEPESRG

[6] = biological target: T5, wild-type human MCAM, hsMCAM-V5/HIS6, expressed on BHK cells (human) (UniProt P43121); test: immunofluorescence on BHK cells expressing human MCAM
T5 sequence: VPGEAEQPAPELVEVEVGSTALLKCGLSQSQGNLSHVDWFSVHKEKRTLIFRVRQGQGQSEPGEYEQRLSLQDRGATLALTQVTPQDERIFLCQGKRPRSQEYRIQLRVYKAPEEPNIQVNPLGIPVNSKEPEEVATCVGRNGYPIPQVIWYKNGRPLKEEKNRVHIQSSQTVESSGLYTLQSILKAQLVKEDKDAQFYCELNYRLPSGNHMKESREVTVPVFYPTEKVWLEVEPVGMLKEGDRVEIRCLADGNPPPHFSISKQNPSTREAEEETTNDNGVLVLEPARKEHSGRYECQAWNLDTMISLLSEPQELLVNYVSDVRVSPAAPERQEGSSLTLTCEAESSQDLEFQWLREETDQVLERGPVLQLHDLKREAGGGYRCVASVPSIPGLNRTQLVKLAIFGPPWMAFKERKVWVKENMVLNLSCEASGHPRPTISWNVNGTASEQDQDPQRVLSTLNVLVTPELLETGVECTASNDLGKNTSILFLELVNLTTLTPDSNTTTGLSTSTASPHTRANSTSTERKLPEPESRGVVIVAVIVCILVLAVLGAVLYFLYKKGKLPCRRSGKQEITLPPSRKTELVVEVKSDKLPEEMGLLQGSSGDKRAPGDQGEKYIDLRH

B1: mouse anti-human MCAM monoclonal antibody clone 1174.1.3 (antibody, V domains shown)
VH: QIQLVQSGPELKKPGETVKISCKASGYTFTNYGMNWVKQAPGKGLKWMGWINTYTGEPTYADDFKGRFALSLETSASTAYLQINNLKNEDMATYFCARYRYNKYERAMDYWGQGTSVTVSS
VL: DIVLTQSPASLAVSLGQRATISCRASKSVSTSGYSYMYWYQQKPGQPPKLLIYLASNLESGVPARFSGSGSGTDFTLNIHPVEEEDAATYYCQHSRELPFTFGSGTKLEIK
notes: Mouse hybridoma monoclonal antibody
binding [1]: binds

B5: Human 1749VH3VL3 (Hu1749VHv3 and Hu1749VLv3) (antibody, V domains shown)
VH: EVKLVESGGGLVQPGGSLRLSCAASGFTFSSYIMSWVRQTPEKRLEWVATISSGGSSTYYPDSVKGRFTISRDNAKNTLYLQMSSLKSEDTAMYYCTRDDDYDVKVFAYWGQGTLVTVSS
VL: DIVMTQSPSSLAVSLGERVTINCKSSRSLLNSRIRKNYLAWYQQKPGQSPKLLIYWASTRESGVPDRFSGSGSGTDFTLTISSLQAEDVAVYYCKQSYNLLTFGQGTKVEIKR
notes: also called hu1749VH3VL3; hu1749H3L3
binding [5]: binds

B6: mouse anti-human MCAM monoclonal antibody clone 1414.1.2 (antibody, V domains shown)
VH: EIQLQQTGPELVKPGASVKISCKASGYSFTDYIMLWVKQSHGKSLEWIGNINPYSGSSGYNLKFKGKATLTVDKSSSTAYMQLNSLTSEDSAVYYCARGKDFAMDYWGQGTSVTVSS
VL: DIVMSQSPSSLAVSAGEKVTMSCKSSQSLLNSSTRKNFLAWYQQKPGQSPKLLIYWASTRESGVPDRFTGSGSGTDFTLTISSVQAEDLAVYYCKQSYNRYTFGGGTKLEIK
notes: as for B1
binding [1]: binds

Now from value to binder:

binding [2]: binds
binding [3]: binds
binding [4]: binds
B2: rat anti-human MCAM monoclonal antibody clone 2120.4.19 (antibody, V domains shown)
VH: QVQLKESGPGLVQPSQTLSLTCTVSGFSLTSNGVSWVRQPPGKGLEWIAAISSGGTTYYNSAFKSRLSISRNTSKSQVLLKMNSLQTEDTAMYFCARRYGYGWYFDFWGPGTMVTVSS
VL: DIRMTQSPSLLSASVGDRVTLNCKASQNIYNSLAWYQQKLGEGPKVLIFNANSLQTGIPSRFSGSGSGTDFTLTISSLQPEDFATYFCQQFYSGYTFGAGTKLELK
notes: Rat hybridoma monoclonal antibody

binding [2]: binds
binding [3]: binds
binding [4]: binds
B3: rat anti-human MCAM monoclonal antibody clone 2107.4.10 (antibody, V domains shown)
VH: QVQLKESGPGLVQSSQTLSLTCTVSGFSLTSNGVSWVRQPPGKGLEWIAAISSGGSTYYNSAFKSRLSISRNTSKSQVLLKMNSLQTEDTGMYFCARHRPFYFDYWGQGVMVTVSS
VL: DIQVTQSPSLLSASVGDRVTLNCKGSQNIYKSLAWFRLKRGEAPKLLIYDANSLQTGIPSRFSGSGSGTDFTLTITSLQPEDVATYFCQQYYSGYTFGAGTKLELK
notes: as for B2

binding [1]: binds
B4: mouse anti-human MCAM monoclonal antibody clone 1415.1.1 (antibody, V domains shown)
VH: QVQLQQPGAELVQPGAPVKLSCKASGYIFTSYWMNWVKQRPGRGLEWIGRIDPSDSKIHYNQKFKDKATLTVDRSSSTAYIQLGSLTSEDSAVYYCAKEGGLRRGDYAMDYWGQGTSVTVSS
VL: DIVMTQSPATLSVTPGDRVSLSCRASQSISDYLHWYQQKSHESPRLLIKYASQSISGIPSRFSGSGSGSDFTLSINSVEPEDVGVYYCQNGHNFPRTFGGGTKLEIK
notes: as for B1

binding [1]: binds
binding [6]: binds
B7: mouse anti-human MCAM monoclonal antibody clone 1749.1.3 (antibody, V domains shown)
VH: DVKLVESGGDLVKPGGSLKLSCAASGFTFSSYIMSWVRQTPEKRLEWVATISSGGSSTYYPDSVKGRFTISRDNAKNTLYLQMSSLKSEDTAMYYCTRDDDYDVKVFAYWGQGTLVTVSA
VL: DIVMSQSPSSLAVSAGEKVTMNCKSSRSLLNSRIRKNYLAWYQQKPGQSPKLLIYWASTRESGVPDRFTGSGSGTDFTLTISSVQAEDLAVYYCKQSYNLLTFGAGTKLELK
notes: Mouse hybridoma monoclonal antibody; also called m1749
